# Experimental data reported in PubChem BioAssay AID445 (National Center for Advancing Translational Sciences (NCATS), 2006).
# The list shows a part of the results. These are further read-outs of the screen, such as a control signal, another cell line or another target. No call is given for them. The list favours compounds with an active or inconclusive main result. Words in brackets tell the shape of the fitted curve; partial curves, single points and poor fits give uncertain potencies.
# Assay: IkB Signaling
# Settings: ABC-DLBCL IkBa-CBG/CBR dual luciferase ratio (green luciferase fused to IkBa over red control in OCI-Ly3 lymphoma cells), 4 h
# In short: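 Curves were fitted separately to fusion (green), unfused (red) and ratio luminescence, then classed by r2, magnitude and activity. Cells: OCI-Ly3, 4 h compound plus doxycycline at 37C; 10 uM MG-132 defined full response.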
# [1] = measured here: control luc red channel unless noted
# [2] = measured here: IkB-luc green channel
# [3] = measured here: control luc red channel
smiles,measurement,setting,value
COc1ccc(N2CCN(c3oc(/C=C/c4cc(OC)c(OC)c(OC)c4)nc3C#N)CC2)cc1,AC50,[1],"10 µM [falling, partial curve]"
Cc1cc(C)cc(Oc2nc3c(c(=O)n(C)c(=O)n3C)n2Cc2ccc(F)cc2)c1,AC50,[1],"25.1 µM [falling, partial curve]"
COc1ccc(F)cc1S(=O)(=O)NCCc1sc2nc(-c3ccc(F)cc3)nn2c1C,AC50,[1],"10 µM [falling, partial curve]"
O[C@@H]1[C@@H]2c3cc4c(cc3CN3CCC(=C[C@@H]1O)[C@H]23)OCO4,AC50,[2],"1.58 µM [rising, partial curve]"
same,AC50,[3],"5.01 µM [falling, full curve]"
O=S(=O)(NCc1cn2ccsc2n1)c1ccc(Oc2ccccc2)cc1,AC50,[1],"3.98 µM [falling, full curve]"
Cc1cc(OCC(=O)N(Cc2sccc2C)C2CCS(=O)(=O)C2)ccc1Cl (stereo unspecified),AC50,[1],"15.8 µM [falling, partial curve]"
Cc1cc(C)c2c(CC(=O)Nc3c(C(=O)Nc4ccc(Cl)cc4)oc4ccccc34)coc2c1,AC50,[1],"12.6 µM [falling, partial curve]"
CC(C)COc1ccc(C(=O)CCN2CCCCC2)cc1,AC50,[1],"20 µM [falling, partial curve]"
CCOc1ccc(-c2nnc(SCc3nnc(-c4ccccc4)o3)n2-c2ccccc2F)cc1,AC50,[1],"12.6 µM [falling, partial curve]"
CCn1c(=O)c2sccc2n2c(CCC(=O)Nc3cc(C)cc(C)c3)nnc12,AC50,[1],"5.01 µM [rising, full curve, poor fit]"
Cc1ccc(Cl)cc1N1CCN(c2ncnc3onc(C)c23)CC1,AC50,[1],"15.8 µM [falling, partial curve]"
CCOc1ccc(NC(=O)c2nccnc2CO)cc1,AC50,[1],"10 µM [falling, partial curve]"
CCC(c1nnnn1C(C)(C)C)N1CCN(c2cc(Cl)ccc2C)CC1 (stereo unspecified),AC50,[1],"15.8 µM [falling, partial curve]"
Cc1cc(C)c2c(CC(=O)N(Cc3ccccc3)C3CCS(=O)(=O)C3)coc2c1 (stereo unspecified),AC50,[1],"31.6 µM [falling, single point]"
CCC(=O)N1CCc2cc(Br)cc(S(=O)(=O)N3CCCC(C(=O)N(C)c4ccc(Br)cc4)C3)c21 (stereo unspecified),AC50,[1],"12.6 µM [falling, partial curve]"
COc1ccc(C(=O)NCCn2cc(SCC(=O)Nc3cc(C)on3)c3ccccc32)cc1OC,AC50,[1],"12.6 µM [falling, partial curve]"
COc1ccccc1CNC(=O)c1ccc(-c2nc(CN3CCc4ccccc43)c(C)o2)cc1,AC50,[1],"6.31 µM [falling, partial curve]"
CCCCN(C(=O)Cn1nnc2ccccc21)C(C(=O)NCc1ccco1)c1ccncc1 (stereo unspecified),AC50,[1],"20 µM [falling, partial curve]"
CCc1ccc(NC(=O)C(=O)NCCc2csc(-c3ccc(C(F)(F)F)cc3)n2)cc1,AC50,[1],"10 µM [falling, partial curve]"
COc1cccc(C(=O)N2c3cc(C)ccc3C(C)(c3ccccc3)CC2(C)C)c1 (stereo unspecified),AC50,[1],"0.631 µM [falling, full curve]"
Cn1cccc1C(=O)NC(=O)COC(=O)c1ccccc1Sc1ccccc1C#N,AC50,[1],"7.94 µM [falling, partial curve]"
Cc1ccc(O)c(NC(=O)c2cccc(NC(=O)c3ccco3)c2)c1,AC50,[1],"25.1 µM [falling, single point]"
CCc1ccc(CNC(=O)c2cnc3sc4cc(OC)ccc4n3c2=O)cc1,AC50,[1],"3.98 µM [rising, full curve, poor fit]"
Cc1cccc(C)c1Nc1sc(C(=O)c2ccccc2)c(N)c1C(=O)Nc1ccc(F)cc1,AC50,[1],"3.16 µM [falling, full curve]"
CCOC(=O)c1ccc(N2C(=O)c3n[nH]c(-c4cccs4)c3C2c2ccc(C(C)(C)C)cc2)cc1 (stereo unspecified),AC50,[1],"20 µM [falling, single point]"
O=C(Nc1nc2n(n1)C(c1ccccc1)C=C(c1ccccc1)N2)c1ccc(Cl)c([N+](=O)[O-])c1 (stereo unspecified),AC50,[1],"39.8 µM [falling, single point]"
CCc1cccc(NC(=O)Cn2nc(-c3ccc(OC)cc3)ccc2=O)c1,AC50,[1],"39.8 µM [falling, single point]"
CCOc1ccccc1NC(=O)Cn1c(=O)n(Cc2ccccc2)c(=O)c2c(C)c(C)sc21,AC50,[1],"6.31 µM [falling, partial curve]"
Cc1ccc(NC(=O)c2c(C)oc3ccc(O)c(CN4CCCCCC4)c23)c(C)c1,AC50,[1],"25.1 µM [falling, partial curve]"
CC(C)OCCCNC(=O)c1cc2c(-c3ccc(Cl)cc3)nn(C)c2s1,AC50,[1],"2 µM [falling, full curve, poor fit]"
N#CCSc1nnc(COc2cccc3ccccc23)n1-c1ccccc1,AC50,[2],"25.1 µM [falling, partial curve]"
same,AC50,[3],"12.6 µM [falling, partial curve]"
CC(C)OCCCn1c(=S)[nH]c2ccc(N3CCOCC3)cc2c1=O,AC50,[1],"12.6 µM [falling, partial curve]"
CC(C(=O)NCc1ccccc1F)n1ccc2cc(S(=O)(=O)N3CCCC3)ccc21 (stereo unspecified),AC50,[1],"15.8 µM [falling, partial curve, poor fit]"
CN1CCc2nc(SCCOc3ccccc3)c(C#N)cc2C1,AC50,[1],"25.1 µM [falling, single point]"
COc1ccc(Br)cc1C(=O)Nc1nc2ccc(F)cc2s1,AC50,[1],"0.0631 µM [falling, full curve]"
O=C(CNc1ccccc1)Nc1ccc(F)cc1,AC50,[1],"1.26 µM [falling, partial curve]"
Cc1cccc(-c2c3c(=O)n(C)c(=O)n(C)c3cn2-c2ccccc2O)c1,AC50,[1],"10 µM [falling, partial curve]"
Cc1nn(Cc2ccccc2)c(C)c1NC(=O)c1cc(-c2cccs2)on1,AC50,[1],"12.6 µM [falling, partial curve]"
CC1CN(C(=O)Nc2ccc(C(=O)NCc3cccc(F)c3)cc2)c2ccccc2S1 (stereo unspecified),AC50,[1],"12.6 µM [falling, partial curve]"

# Another view of some results above:
smiles	measurement	setting	value
CCOc1ccccc1NC(=O)Cn1c(=O)n(Cc2ccccc2)c(=O)c2c(C)c(C)sc21	AC50	[1]	6.31 µM [falling, partial curve]
Cc1ccc(NC(=O)c2c(C)oc3ccc(O)c(CN4CCCCCC4)c23)c(C)c1	AC50	[1]	25.1 µM [falling, partial curve]
CC(C)OCCCNC(=O)c1cc2c(-c3ccc(Cl)cc3)nn(C)c2s1	AC50	[1]	2 µM [falling, full curve, poor fit]
N#CCSc1nnc(COc2cccc3ccccc23)n1-c1ccccc1	AC50	[2]	25.1 µM [falling, partial curve]
same	AC50	[3]	12.6 µM [falling, partial curve]
CC(C)OCCCn1c(=S)[nH]c2ccc(N3CCOCC3)cc2c1=O	AC50	[1]	12.6 µM [falling, partial curve]
CC(C(=O)NCc1ccccc1F)n1ccc2cc(S(=O)(=O)N3CCCC3)ccc21 (stereo unspecified)	AC50	[1]	15.8 µM [falling, partial curve, poor fit]
CN1CCc2nc(SCCOc3ccccc3)c(C#N)cc2C1	AC50	[1]	25.1 µM [falling, single point]
